Assay results published in US20190390199.
Tags and fusion partners may be left off the protein sequences shown.

Molecular target: T1, TLR9 (Toll-like receptor 9) (Homo sapiens) (UniProt Q9NR96)
T1 sequence (looked up, limits assumed): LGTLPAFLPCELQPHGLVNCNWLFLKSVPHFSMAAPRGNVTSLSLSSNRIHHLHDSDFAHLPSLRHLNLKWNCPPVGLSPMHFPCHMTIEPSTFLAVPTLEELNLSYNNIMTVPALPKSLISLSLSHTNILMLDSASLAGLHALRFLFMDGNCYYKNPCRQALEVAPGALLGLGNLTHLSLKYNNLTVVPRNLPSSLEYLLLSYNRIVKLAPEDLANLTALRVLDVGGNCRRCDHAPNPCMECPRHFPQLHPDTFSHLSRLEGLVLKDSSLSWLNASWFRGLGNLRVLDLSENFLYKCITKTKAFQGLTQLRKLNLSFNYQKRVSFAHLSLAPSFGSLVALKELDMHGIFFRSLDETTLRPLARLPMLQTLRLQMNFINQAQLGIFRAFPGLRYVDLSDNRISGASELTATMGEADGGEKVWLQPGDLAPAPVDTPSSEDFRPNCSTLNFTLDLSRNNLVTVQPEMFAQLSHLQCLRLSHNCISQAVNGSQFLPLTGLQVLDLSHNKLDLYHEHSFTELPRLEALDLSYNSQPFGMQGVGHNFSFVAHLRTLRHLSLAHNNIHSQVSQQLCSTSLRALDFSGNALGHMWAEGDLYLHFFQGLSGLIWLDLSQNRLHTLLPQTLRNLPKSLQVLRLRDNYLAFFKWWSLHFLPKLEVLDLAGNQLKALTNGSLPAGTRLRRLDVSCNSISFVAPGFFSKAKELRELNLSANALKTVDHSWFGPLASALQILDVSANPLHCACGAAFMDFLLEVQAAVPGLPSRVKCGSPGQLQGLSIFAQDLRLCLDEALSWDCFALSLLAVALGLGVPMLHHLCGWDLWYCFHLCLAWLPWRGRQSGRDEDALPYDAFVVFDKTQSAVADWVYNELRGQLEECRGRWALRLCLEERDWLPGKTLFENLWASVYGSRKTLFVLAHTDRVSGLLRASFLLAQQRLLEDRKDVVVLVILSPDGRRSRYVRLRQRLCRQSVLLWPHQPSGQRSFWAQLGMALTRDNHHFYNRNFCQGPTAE
Assay: activity in cells
Conditions: functional readout only; agonist used at 300 ng/ml (38.86 nM) to activate the TLR9 reporter; protein in cells; single-stranded DNA

Sequence: TCGTCGTTTTGTCGTTTTGTCGTT [ODN 2006 (TLR9 agonist)]
- functional effect: active
